The campaign covered roughly 300,000 compounds. About 5,400 (1.8%) were called active. Inconclusive means that the source gave no clear call. Such entries were picked first, then a sample of the others. Calls come from the whole dose curve; tested in HEK293 cells. Potencies of inconclusive entries are doubtful fits and often do not repeat.
experiment: qHTS for inhibitors of binding or entry into cells for Marburg Virus; conditions: Marburg virus pseudotyped entry inhibition, cell reporter; series mostly up to 37.8 µM
Potency is the fitted concentration of half-maximal effect.

Structure (SMILES)	Potency
Cc1ccc(NC(=O)CSc2nccn2C)cc1F	inconclusive: 12.6 µM [activator, partial curve]
CC1=C(C(=O)Nc2ccccc2)C(c2ccncc2)C(C#N)=C(SCC(=O)Nc2ccccc2)N1 (stereo not given)	inconclusive: 4.11 µM [inhibitor, full curve, poor fit]
Cc1ccc(C(O)(C(=O)NNC(=O)CN2CCN(C)CC2)c2ccc(C)cc2)cc1	inconclusive: 8.91 µM [inhibitor, partial curve, poor fit]
CN1CCN(CC(=O)Nc2ccc(OC(F)(F)F)cc2)CC1	inconclusive: 2.24 µM [activator, partial curve, poor fit]
O=C(Cn1c(=O)n(CC2CCCO2)c(=O)c2ccccc21)c1ccccc1 (stereo not given)	inconclusive: 1.26 µM [activator, single point]
O=C(N/N=C/C=C\c1ccco1)c1ccccn1	inactive
COc1ccc(S(=O)(=O)Nc2ccccc2C(=O)N2CCCCC2)cc1C	inconclusive: 5.62 µM [inhibitor, single point]
O=C(Nc1ccc2oc(-c3ccccc3)nc2c1)c1ccncc1	inconclusive: 35.5 µM [inhibitor, single point]
COc1ccc(CNC(=S)N/N=C/c2ccncc2)cc1	inactive
CCc1ccc(N2CC(C)Cn3c2nc2c3c(=O)n(CCN3CCOCC3)c(=O)n2C)cc1 (stereo not given)	inconclusive: 6.31 µM [inhibitor, partial curve, poor fit]
COc1ccccc1CN(C)C(=O)CNC(=O)c1cccc(Cl)c1	inconclusive: 5.62 µM [activator, single point]
N#Cc1ccc(C(=O)Nc2ccc3ccccc3c2)cc1	inconclusive: 5.01 µM [activator, partial curve, poor fit]
C=CCNc1nc(Cl)nc(Nc2cc(Cl)ccc2OC)n1	active: 12.6 µM
O=C(c1cc(-c2ccccc2O)on1)N1CCOCC1	inactive
COc1ccc(C2=[N+]([O-])C(C)(C)C(c3ccccc3)=N2)cc1	inactive
Fc1ccccc1SCc1nnc(-c2ccccc2Br)o1	active: 5.01 µM
COc1ccc(C/C(C)=N/NC(=O)c2ccc(Cl)cc2)cc1	inactive
COc1cccc(CNC(=O)c2ccc(NC(=O)C3CCCO3)cc2)c1 (stereo not given)	inactive
C=CCNC(=S)NNC(=O)c1cccn(Cc2ccc(Cl)cc2)c1=O	inconclusive: 29.1 µM [activator, single point]
COCC(=O)Nc1c(C(=O)Nc2cccc(OC)c2)oc2ccccc12	inconclusive: 0.411 µM [activator, partial curve]

No new results follow: an excerpt of the list.
Structure (SMILES)	Potency
COc1ccc(S(=O)(=O)Nc2ccccc2C(=O)N2CCCCC2)cc1C	inconclusive: 5.62 µM [inhibitor, single point]
O=C(Nc1ccc2oc(-c3ccccc3)nc2c1)c1ccncc1	inconclusive: 35.5 µM [inhibitor, single point]
COc1ccc(CNC(=S)N/N=C/c2ccncc2)cc1	inactive
CCc1ccc(N2CC(C)Cn3c2nc2c3c(=O)n(CCN3CCOCC3)c(=O)n2C)cc1 (stereo not given)	inconclusive: 6.31 µM [inhibitor, partial curve, poor fit]
COc1ccccc1CN(C)C(=O)CNC(=O)c1cccc(Cl)c1	inconclusive: 5.62 µM [activator, single point]

From PubChem BioAssay AID540276 (National Center for Advancing Translational Sciences (NCATS), 2011)
